38 compounds from the supplement of paper PMC10077471 can be followed below.

The structures appear in SMILES notation. In all, about 1,900 compounds were measured (“excess over highest single agent (ExcessHSA) synergy score, 6x6 matrix”: median about -83, lowest 2% from about -370 on). Some of the results follow.

The assay has as its system NCI-H446. Briefly: excess over highest single agent (ExcessHSA) synergy score, 6x6 matrix; higher = less synergy (more negative = stronger synergy). The settings on record: 72 h; CellTiter-Glo viability. Background: In ATP-based viability assays light output follows the ATP content of the culture.
`CCOC(=O)Nc1ccc(NCc2ccc(F)cc2)cc1N` + Cc1sc2c(c1C)C(c1ccc(Cl)cc1)=N[C@@H](CC(=O)OC(C)(C)C)c1nnc(C)n1-2 [NCGC00250412-19]: the “excess over highest single agent” value was found to be 0.0827.
Take `Cc1ccc(C(N)=O)cc1Nc1nccc(-c2cn(C(C)C)c3cnccc23)n1` + Cc1sc2c(c1C)C(c1ccc(Cl)cc1)=N[C@@H](CC(=O)OC(C)(C)C)c1nnc(C)n1-2 [NCGC00250412-19]: the “excess over highest single agent” value is 226.
Consider `O=C(O)c1ccc(-n2nc(-c3ccccc3O)nc2-c2ccccc2O)cc1` + Cc1sc2c(c1C)C(c1ccc(Cl)cc1)=N[C@@H](CC(=O)OC(C)(C)C)c1nnc(C)n1-2 [NCGC00250412-19], for which the “excess over highest single agent” value was -85.1.
As for `COc1c(C)c2c(c(O)c1C/C=C(\C)CCC(=O)OCCN1CCOCC1)C(=O)OC2` + Cc1sc2c(c1C)C(c1ccc(Cl)cc1)=N[C@@H](CC(=O)OC(C)(C)C)c1nnc(C)n1-2 [NCGC00250412-19], the “excess over highest single agent” value was -105.
For `CN1C(C(=O)Nc2ccccn2)=C(O)c2ccccc2S1(=O)=O` + Cc1sc2c(c1C)C(c1ccc(Cl)cc1)=N[C@@H](CC(=O)OC(C)(C)C)c1nnc(C)n1-2 [NCGC00250412-19] the value was -44.8; for `CC1(C)[C@@H](O)CC[C@]2(C)[C@H]3C(=O)C=C4[C@@H]5C[C@@](C)(C(=O)O)CC[C@]5(C)CC[C@@]4(C)[C@]3(C)CC[C@@H]12` + Cc1sc2c(c1C)C(c1ccc(Cl)cc1)=N[C@@H](CC(=O)OC(C)(C)C)c1nnc(C)n1-2 [NCGC00250412-19], -100.
On to `CS(=O)(=O)Oc1ccc2c(NC(N)=O)c(C(=O)c3ccc(Cl)cc3Cl)oc2c1` + Cc1sc2c(c1C)C(c1ccc(Cl)cc1)=N[C@@H](CC(=O)OC(C)(C)C)c1nnc(C)n1-2 [NCGC00250412-19], for which the “excess over highest single agent” value worked out at 36.3.
`CC1(C)CC(=O)c2c(C(F)(F)F)nn(-c3ccc(C(N)=O)c(N[C@H]4CC[C@H](OC(=O)CN)CC4)c3)c2C1` + Cc1sc2c(c1C)C(c1ccc(Cl)cc1)=N[C@@H](CC(=O)OC(C)(C)C)c1nnc(C)n1-2 [NCGC00250412-19]: the “excess over highest single agent” value is -482.
For `CCN(CC)CCNC(=O)c1ccc2nc(-c3ccccc3)c(-c3ccc(CN4CCC(n5c(=O)[nH]c6ccccc65)CC4)cc3)nc2c1` + Cc1sc2c(c1C)C(c1ccc(Cl)cc1)=N[C@@H](CC(=O)OC(C)(C)C)c1nnc(C)n1-2 [NCGC00250412-19] the value was 239; for `Cc1ccc(C)c(OCCCC(C)(C)C(=O)O)c1` + Cc1sc2c(c1C)C(c1ccc(Cl)cc1)=N[C@@H](CC(=O)OC(C)(C)C)c1nnc(C)n1-2 [NCGC00250412-19], 103; for `O=C(O)C[C@H](O)C[C@H](O)/C=C/c1c(C2CC2)nc2ccccc2c1-c1ccc(F)cc1` + Cc1sc2c(c1C)C(c1ccc(Cl)cc1)=N[C@@H](CC(=O)OC(C)(C)C)c1nnc(C)n1-2 [NCGC00250412-19], -165.
Regarding `O=C(CCCN1CCC(O)(c2ccc(Cl)cc2)CC1)c1ccc(F)cc1` + Cc1sc2c(c1C)C(c1ccc(Cl)cc1)=N[C@@H](CC(=O)OC(C)(C)C)c1nnc(C)n1-2 [NCGC00250412-19], the “excess over highest single agent” value was -225.
Take `CN1CCN(Cc2ccc(NC(=O)Nc3ccc(Oc4cc(NC(=O)C5CC5)ncn4)cc3)cc2C(F)(F)F)CC1` + Cc1sc2c(c1C)C(c1ccc(Cl)cc1)=N[C@@H](CC(=O)OC(C)(C)C)c1nnc(C)n1-2 [NCGC00250412-19]: the “excess over highest single agent” value was -34.2.
Consider `COc1cc2c(cc1OC)[C@@H]1Cc3ccc(OC)c(OC)c3CN1CC2` + Cc1sc2c(c1C)C(c1ccc(Cl)cc1)=N[C@@H](CC(=O)OC(C)(C)C)c1nnc(C)n1-2 [NCGC00250412-19], for which the “excess over highest single agent” value was -95.9.
With `CN1CCC(CNc2ccc3ncc(-c4cccc(OC(F)(F)F)c4)n3n2)CC1` + Cc1sc2c(c1C)C(c1ccc(Cl)cc1)=N[C@@H](CC(=O)OC(C)(C)C)c1nnc(C)n1-2 [NCGC00250412-19], the “excess over highest single agent” value is -9.83.
In the case of `COc1cc(C=CC(=O)O)ccc1O` + Cc1sc2c(c1C)C(c1ccc(Cl)cc1)=N[C@@H](CC(=O)OC(C)(C)C)c1nnc(C)n1-2 [NCGC00250412-19] it was 22.9; in that of `COc1cc2c(cc1OC)[C@@H]1C(=O)c3ccc4c(c3O[C@@H]1CO2)C=CC(C)(C)O4` + Cc1sc2c(c1C)C(c1ccc(Cl)cc1)=N[C@@H](CC(=O)OC(C)(C)C)c1nnc(C)n1-2 [NCGC00250412-19], -58.6; in that of `C=C(C)[C@@H]1CC[C@]2(C)CC[C@]3(C)[C@H](CC[C@@H]4[C@@]5(C)CC[C@H](O)C(C)(C)[C@@H]5CC[C@]43C)[C@@H]12` + Cc1sc2c(c1C)C(c1ccc(Cl)cc1)=N[C@@H](CC(=O)OC(C)(C)C)c1nnc(C)n1-2 [NCGC00250412-19], -246.
As for `CC(C)c1cnn2c(NCc3ccccc3)cc(N[C@@H](CO)[C@H](O)CO)nc12` + Cc1sc2c(c1C)C(c1ccc(Cl)cc1)=N[C@@H](CC(=O)OC(C)(C)C)c1nnc(C)n1-2 [NCGC00250412-19], the “excess over highest single agent” value was -182.
Consider `O=C(C=CC#Cc1cccc(NS(=O)(=O)c2ccccc2)c1)NO` + Cc1sc2c(c1C)C(c1ccc(Cl)cc1)=N[C@@H](CC(=O)OC(C)(C)C)c1nnc(C)n1-2 [NCGC00250412-19], for which the “excess over highest single agent” value was -234.
Turning to `Cc1cccc(-c2[nH]ncc2-c2ccc3ncccc3n2)n1` + Cc1sc2c(c1C)C(c1ccc(Cl)cc1)=N[C@@H](CC(=O)OC(C)(C)C)c1nnc(C)n1-2 [NCGC00250412-19], the “excess over highest single agent” value was determined as 124.
As for `O=C(NCCCNc1nc(Nc2cccc(NC(=O)N3CCCC3)c2)ncc1I)c1cccs1` + Cc1sc2c(c1C)C(c1ccc(Cl)cc1)=N[C@@H](CC(=O)OC(C)(C)C)c1nnc(C)n1-2 [NCGC00250412-19], the “excess over highest single agent” value is -137.
For the compound `CN(C)CCOc1cc(-c2cn[nH]c2)ccc1NC(=O)C1COc2ccccc2O1` (stereo not drawn) + Cc1sc2c(c1C)C(c1ccc(Cl)cc1)=N[C@@H](CC(=O)OC(C)(C)C)c1nnc(C)n1-2 [NCGC00250412-19], the “excess over highest single agent” value is -160.
For the compound `c1cc(CN2CCCNCCNCCCNCC2)ccc1CN1CCCNCCNCCCNCC1` + Cc1sc2c(c1C)C(c1ccc(Cl)cc1)=N[C@@H](CC(=O)OC(C)(C)C)c1nnc(C)n1-2 [NCGC00250412-19], the “excess over highest single agent” value is -64.1.
For `CCNC(=O)c1cc2c(-c3cc(OCCN4CCCC4)c(Cl)cc3Cl)nc(N)nc2s1` + Cc1sc2c(c1C)C(c1ccc(Cl)cc1)=N[C@@H](CC(=O)OC(C)(C)C)c1nnc(C)n1-2 [NCGC00250412-19], the “excess over highest single agent” value was -89.1.
With `CC(C)n1cnc2c(NCCc3ccc(O)cc3)nc(-c3csc4ccccc34)nc21` + Cc1sc2c(c1C)C(c1ccc(Cl)cc1)=N[C@@H](CC(=O)OC(C)(C)C)c1nnc(C)n1-2 [NCGC00250412-19], the “excess over highest single agent” value is -111.
For the compound `O=C(CN1C(=O)C2(CCCC2)NC[C@H]1c1cc(F)cc(F)c1)Nc1ccc2c(c1)C[C@@]1(C2)C(=O)Nc2ncccc21` + Cc1sc2c(c1C)C(c1ccc(Cl)cc1)=N[C@@H](CC(=O)OC(C)(C)C)c1nnc(C)n1-2 [NCGC00250412-19], the “excess over highest single agent” value is -59.7.
In the case of `COc1ccc2c3c1O[C@H]1C[C@@H](O)C=C[C@@]31CCN(C)C2` + Cc1sc2c(c1C)C(c1ccc(Cl)cc1)=N[C@@H](CC(=O)OC(C)(C)C)c1nnc(C)n1-2 [NCGC00250412-19], the “excess over highest single agent” value was -60.7.
As to `O=c1[nH]c(=O)n([C@H]2C[C@H](O)[C@@H](CO)O2)cc1C(F)(F)F` + Cc1sc2c(c1C)C(c1ccc(Cl)cc1)=N[C@@H](CC(=O)OC(C)(C)C)c1nnc(C)n1-2 [NCGC00250412-19], the “excess over highest single agent” value was -189.
Turning to `Cn1cncc1[C@@](N)(c1ccc(Cl)cc1)c1ccc2c(c1)c(-c1cccc(Cl)c1)cc(=O)n2C` + Cc1sc2c(c1C)C(c1ccc(Cl)cc1)=N[C@@H](CC(=O)OC(C)(C)C)c1nnc(C)n1-2 [NCGC00250412-19], the “excess over highest single agent” value is -335.
As for `CON(C)C(=O)N1N=C(c2cc(F)ccc2F)S[C@@]1(CCCN)c1ccccc1` + Cc1sc2c(c1C)C(c1ccc(Cl)cc1)=N[C@@H](CC(=O)OC(C)(C)C)c1nnc(C)n1-2 [NCGC00250412-19], the “excess over highest single agent” value was -262.
Turning to `NC(=O)N1c2ccccc2CC(=O)c2ccccc21` + Cc1sc2c(c1C)C(c1ccc(Cl)cc1)=N[C@@H](CC(=O)OC(C)(C)C)c1nnc(C)n1-2 [NCGC00250412-19], the “excess over highest single agent” value is -88.6.
`Oc1nc(-c2ccc(C(F)(F)F)cc2)nc2c1CSCC2` + Cc1sc2c(c1C)C(c1ccc(Cl)cc1)=N[C@@H](CC(=O)OC(C)(C)C)c1nnc(C)n1-2 [NCGC00250412-19]: the “excess over highest single agent” value was 9.55.
Take `Cc1cnc(Nc2ccc(CN3CCOCC3)cc2)nc1Nc1cccc(S(=O)(=O)NC(C)(C)C)c1` + Cc1sc2c(c1C)C(c1ccc(Cl)cc1)=N[C@@H](CC(=O)OC(C)(C)C)c1nnc(C)n1-2 [NCGC00250412-19]: the “excess over highest single agent” value worked out at 52.
In the case of `C[C@]12O[C@H](C[C@]1(O)CO)n1c3ccccc3c3c4c(c5c6ccccc6n2c5c31)CNC4=O` + Cc1sc2c(c1C)C(c1ccc(Cl)cc1)=N[C@@H](CC(=O)OC(C)(C)C)c1nnc(C)n1-2 [NCGC00250412-19] it was -297; in that of `CC(C)Cn1cnc2c(N)nc3ccccc3c21` + Cc1sc2c(c1C)C(c1ccc(Cl)cc1)=N[C@@H](CC(=O)OC(C)(C)C)c1nnc(C)n1-2 [NCGC00250412-19], -18.3.
In the case of `CN(C)c1ccc(-c2nc3ncc(Cl)c(N4CCN(CC(=O)Nc5nccs5)CC4)c3[nH]2)cc1` + Cc1sc2c(c1C)C(c1ccc(Cl)cc1)=N[C@@H](CC(=O)OC(C)(C)C)c1nnc(C)n1-2 [NCGC00250412-19] it was -382; in that of `O=C1CCCC2=C1C(c1[nH]ncc1Cl)N=C(Nc1nc3ccccc3o1)N2` (stereo not drawn) + Cc1sc2c(c1C)C(c1ccc(Cl)cc1)=N[C@@H](CC(=O)OC(C)(C)C)c1nnc(C)n1-2 [NCGC00250412-19], -160.
